Results are given in words; binding and its absence hold for the method and conditions named.
Target: T1, MPP8 chromodomain (CD, residues 55-116) (human), Q99549
T1 chain: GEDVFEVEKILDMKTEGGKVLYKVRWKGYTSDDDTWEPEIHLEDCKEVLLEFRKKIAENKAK
Assay: SEC-MALS; 100 ul of 4 mg/ml MPP8 CD on Superdex 75 10/300; 50 mM HEPES pH 7.5, 0.15 M NaCl, 0.5 mM TCEP, 293 K; both purified
Settings: remark: other sources report otherwise

B1: MPP8 chromodomain (CD, residues 55-116), Q99549 55-116 (domain or fragment)
chain: GEDVFEVEKILDMKTEGGKVLYKVRWKGYTSDDDTWEPEIHLEDCKEVLLEFRKKIAENKAK
B1 was tested, and the binding was “no binding (tested: 4 mg ml^−1)”.

— paper PMC7618375, “Structure and Methyl-lysine Binding Selectivity of the HUSH Complex Subunit MPP8” (Journal of molecular biology, 2024)
